The list shows a part of the results.
Tests used:
Assay in all cases: log2 fold change, soluble protein after heating vs DMSO (PISA); higher = thermal stabilisation; K562 cells, 10 uM, 30 min; active = over 0.2 and 3.5 SD of the protein, either way, in both replicates (recomputed)
[1] = compound: Cc1ccc(NC(=O)c2ccc(CN3CC[C@H](N(C)C)C3)c(C(F)(F)F)c2)cc1Nc1nccc(-c2cncnc2)n1 [bafetinib]
Outline: (§1)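 Thermal stability values are relative to control samples and come from duplicates. They are expressed as log2 fold changes. For measurement, K562 cells (2×10^6 cells/mL) received 10 μM compound for 30 min, and aliquots were heated for 3 min over 48°C-58°C, pooled, and extracted at 4°C in PBS with 0.5% NP-40. Soluble protein, the supernatant after 21,000xg for 90 min, was quantified by TMTpro 16plex LC-MS/MS with equalised channel sums.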

Chains of the proteins cited; added tags and fusions are not shown. Lines headed by an entry give the natural chain unless they say otherwise; changes in a name come on top.
UniProt Q9BVG9: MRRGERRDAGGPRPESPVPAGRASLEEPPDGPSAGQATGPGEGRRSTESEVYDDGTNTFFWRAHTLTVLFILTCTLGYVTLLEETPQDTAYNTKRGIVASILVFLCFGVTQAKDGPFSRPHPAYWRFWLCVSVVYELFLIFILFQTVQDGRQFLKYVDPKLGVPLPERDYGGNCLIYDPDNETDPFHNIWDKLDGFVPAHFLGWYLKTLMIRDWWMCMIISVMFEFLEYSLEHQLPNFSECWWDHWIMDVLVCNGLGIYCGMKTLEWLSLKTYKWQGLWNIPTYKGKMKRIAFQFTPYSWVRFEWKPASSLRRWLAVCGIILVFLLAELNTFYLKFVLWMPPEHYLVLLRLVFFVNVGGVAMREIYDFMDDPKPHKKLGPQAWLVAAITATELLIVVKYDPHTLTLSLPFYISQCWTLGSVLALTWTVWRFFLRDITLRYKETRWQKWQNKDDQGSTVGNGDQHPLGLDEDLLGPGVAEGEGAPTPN
UniProt P18433: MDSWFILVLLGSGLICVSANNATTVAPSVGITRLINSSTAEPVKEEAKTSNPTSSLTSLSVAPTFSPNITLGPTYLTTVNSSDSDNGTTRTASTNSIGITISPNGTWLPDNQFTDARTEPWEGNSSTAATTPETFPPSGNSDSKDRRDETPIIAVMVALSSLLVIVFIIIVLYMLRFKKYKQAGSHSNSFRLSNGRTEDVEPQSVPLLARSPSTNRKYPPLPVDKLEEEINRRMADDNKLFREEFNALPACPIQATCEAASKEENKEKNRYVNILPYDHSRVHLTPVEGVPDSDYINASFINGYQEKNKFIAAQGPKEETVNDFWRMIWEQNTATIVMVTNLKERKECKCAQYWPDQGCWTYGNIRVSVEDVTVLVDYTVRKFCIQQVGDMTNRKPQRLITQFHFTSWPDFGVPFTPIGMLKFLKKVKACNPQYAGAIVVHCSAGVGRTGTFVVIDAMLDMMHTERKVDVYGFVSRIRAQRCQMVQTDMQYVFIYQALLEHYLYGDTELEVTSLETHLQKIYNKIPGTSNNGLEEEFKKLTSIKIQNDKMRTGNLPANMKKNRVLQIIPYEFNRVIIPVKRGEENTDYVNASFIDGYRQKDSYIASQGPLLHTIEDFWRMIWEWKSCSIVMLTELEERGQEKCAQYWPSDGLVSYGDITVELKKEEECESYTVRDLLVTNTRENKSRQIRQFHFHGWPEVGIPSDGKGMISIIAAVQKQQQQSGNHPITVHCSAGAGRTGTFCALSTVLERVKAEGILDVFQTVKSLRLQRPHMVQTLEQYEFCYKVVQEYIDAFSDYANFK
UniProt P55036: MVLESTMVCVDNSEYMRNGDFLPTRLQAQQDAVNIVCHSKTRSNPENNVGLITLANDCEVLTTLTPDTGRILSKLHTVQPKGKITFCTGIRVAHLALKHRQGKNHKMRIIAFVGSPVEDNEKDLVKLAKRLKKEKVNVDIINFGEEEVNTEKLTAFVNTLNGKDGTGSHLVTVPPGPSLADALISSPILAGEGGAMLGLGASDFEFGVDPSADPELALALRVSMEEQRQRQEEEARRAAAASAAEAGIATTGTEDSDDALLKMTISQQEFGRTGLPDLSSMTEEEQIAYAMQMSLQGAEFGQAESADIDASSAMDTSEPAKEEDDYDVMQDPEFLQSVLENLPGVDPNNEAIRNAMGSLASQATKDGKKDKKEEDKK
UniProt Q99436: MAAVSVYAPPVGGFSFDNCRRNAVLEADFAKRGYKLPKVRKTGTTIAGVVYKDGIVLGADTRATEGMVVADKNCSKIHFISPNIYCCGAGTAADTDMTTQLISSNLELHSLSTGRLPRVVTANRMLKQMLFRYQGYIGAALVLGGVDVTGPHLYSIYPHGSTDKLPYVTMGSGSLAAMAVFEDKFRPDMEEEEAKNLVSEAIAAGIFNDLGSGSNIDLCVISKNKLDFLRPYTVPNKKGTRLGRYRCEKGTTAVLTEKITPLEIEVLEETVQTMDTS
UniProt P20962: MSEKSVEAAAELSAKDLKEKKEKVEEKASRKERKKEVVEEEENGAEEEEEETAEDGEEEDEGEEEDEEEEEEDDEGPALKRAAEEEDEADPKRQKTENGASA
UniProt Q15274: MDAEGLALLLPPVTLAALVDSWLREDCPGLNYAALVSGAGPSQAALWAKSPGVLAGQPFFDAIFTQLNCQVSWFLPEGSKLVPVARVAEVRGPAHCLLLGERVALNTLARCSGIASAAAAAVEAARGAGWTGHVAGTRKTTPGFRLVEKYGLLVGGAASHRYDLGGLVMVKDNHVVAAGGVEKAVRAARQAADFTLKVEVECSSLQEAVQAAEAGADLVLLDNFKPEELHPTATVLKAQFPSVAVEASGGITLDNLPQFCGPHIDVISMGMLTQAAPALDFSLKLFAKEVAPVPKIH
UniProt O95758: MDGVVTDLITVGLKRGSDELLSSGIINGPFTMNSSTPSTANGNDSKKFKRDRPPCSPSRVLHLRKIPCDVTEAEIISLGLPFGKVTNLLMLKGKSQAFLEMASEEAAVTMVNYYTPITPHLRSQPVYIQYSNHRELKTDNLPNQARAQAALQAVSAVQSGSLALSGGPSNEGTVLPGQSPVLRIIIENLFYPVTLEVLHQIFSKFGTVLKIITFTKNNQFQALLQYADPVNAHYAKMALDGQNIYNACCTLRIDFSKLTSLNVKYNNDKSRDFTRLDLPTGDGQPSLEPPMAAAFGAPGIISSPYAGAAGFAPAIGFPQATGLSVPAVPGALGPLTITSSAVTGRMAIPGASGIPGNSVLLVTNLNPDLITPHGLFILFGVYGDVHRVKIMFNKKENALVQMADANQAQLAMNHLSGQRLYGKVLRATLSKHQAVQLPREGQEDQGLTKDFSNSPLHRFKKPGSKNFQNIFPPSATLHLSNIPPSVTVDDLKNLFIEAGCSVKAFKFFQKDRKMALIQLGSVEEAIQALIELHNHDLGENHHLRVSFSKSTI
UniProt Q96I23: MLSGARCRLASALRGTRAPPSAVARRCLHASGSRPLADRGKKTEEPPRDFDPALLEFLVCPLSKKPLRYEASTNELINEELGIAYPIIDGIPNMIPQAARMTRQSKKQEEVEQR
UniProt P18031: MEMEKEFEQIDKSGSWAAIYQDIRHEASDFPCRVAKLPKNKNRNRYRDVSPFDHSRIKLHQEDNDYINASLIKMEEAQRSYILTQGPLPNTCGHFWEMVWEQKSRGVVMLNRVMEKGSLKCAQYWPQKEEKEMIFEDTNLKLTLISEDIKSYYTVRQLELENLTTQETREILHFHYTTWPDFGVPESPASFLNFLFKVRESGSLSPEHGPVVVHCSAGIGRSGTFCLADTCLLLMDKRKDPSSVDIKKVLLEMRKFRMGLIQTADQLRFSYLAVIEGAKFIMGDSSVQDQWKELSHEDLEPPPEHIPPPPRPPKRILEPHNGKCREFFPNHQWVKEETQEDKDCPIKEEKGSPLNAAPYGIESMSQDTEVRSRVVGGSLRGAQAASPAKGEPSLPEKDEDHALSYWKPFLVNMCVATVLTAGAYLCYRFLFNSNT
UniProt Q9P2W1: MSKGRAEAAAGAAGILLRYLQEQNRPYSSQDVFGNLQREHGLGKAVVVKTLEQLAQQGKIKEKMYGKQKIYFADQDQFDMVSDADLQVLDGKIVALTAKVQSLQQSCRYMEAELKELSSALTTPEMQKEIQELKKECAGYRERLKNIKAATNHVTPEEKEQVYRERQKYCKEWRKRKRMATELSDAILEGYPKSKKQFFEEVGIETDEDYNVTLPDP
UniProt P48556: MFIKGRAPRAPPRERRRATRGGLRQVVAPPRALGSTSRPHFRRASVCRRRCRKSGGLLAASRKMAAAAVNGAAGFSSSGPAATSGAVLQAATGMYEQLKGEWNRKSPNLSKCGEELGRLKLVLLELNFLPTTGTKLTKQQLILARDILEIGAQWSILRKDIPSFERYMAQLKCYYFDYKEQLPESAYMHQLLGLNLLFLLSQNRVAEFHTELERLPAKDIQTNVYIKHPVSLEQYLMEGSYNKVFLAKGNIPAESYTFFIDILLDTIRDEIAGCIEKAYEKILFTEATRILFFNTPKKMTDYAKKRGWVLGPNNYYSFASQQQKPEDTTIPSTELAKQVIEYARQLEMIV
UniProt Q8WXF1: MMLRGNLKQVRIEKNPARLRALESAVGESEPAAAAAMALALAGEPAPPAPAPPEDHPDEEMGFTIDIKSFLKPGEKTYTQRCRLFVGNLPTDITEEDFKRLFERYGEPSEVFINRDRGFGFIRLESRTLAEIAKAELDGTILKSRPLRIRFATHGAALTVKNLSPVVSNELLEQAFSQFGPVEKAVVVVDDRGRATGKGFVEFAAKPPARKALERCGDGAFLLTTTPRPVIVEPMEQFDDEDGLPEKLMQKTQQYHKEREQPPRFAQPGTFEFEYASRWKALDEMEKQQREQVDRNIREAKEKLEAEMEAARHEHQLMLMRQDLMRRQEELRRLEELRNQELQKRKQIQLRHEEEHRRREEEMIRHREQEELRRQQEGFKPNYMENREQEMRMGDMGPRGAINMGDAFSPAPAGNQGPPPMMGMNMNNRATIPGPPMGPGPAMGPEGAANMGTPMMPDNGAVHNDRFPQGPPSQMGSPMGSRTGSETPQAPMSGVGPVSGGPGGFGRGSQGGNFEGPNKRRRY
UniProt Q15032: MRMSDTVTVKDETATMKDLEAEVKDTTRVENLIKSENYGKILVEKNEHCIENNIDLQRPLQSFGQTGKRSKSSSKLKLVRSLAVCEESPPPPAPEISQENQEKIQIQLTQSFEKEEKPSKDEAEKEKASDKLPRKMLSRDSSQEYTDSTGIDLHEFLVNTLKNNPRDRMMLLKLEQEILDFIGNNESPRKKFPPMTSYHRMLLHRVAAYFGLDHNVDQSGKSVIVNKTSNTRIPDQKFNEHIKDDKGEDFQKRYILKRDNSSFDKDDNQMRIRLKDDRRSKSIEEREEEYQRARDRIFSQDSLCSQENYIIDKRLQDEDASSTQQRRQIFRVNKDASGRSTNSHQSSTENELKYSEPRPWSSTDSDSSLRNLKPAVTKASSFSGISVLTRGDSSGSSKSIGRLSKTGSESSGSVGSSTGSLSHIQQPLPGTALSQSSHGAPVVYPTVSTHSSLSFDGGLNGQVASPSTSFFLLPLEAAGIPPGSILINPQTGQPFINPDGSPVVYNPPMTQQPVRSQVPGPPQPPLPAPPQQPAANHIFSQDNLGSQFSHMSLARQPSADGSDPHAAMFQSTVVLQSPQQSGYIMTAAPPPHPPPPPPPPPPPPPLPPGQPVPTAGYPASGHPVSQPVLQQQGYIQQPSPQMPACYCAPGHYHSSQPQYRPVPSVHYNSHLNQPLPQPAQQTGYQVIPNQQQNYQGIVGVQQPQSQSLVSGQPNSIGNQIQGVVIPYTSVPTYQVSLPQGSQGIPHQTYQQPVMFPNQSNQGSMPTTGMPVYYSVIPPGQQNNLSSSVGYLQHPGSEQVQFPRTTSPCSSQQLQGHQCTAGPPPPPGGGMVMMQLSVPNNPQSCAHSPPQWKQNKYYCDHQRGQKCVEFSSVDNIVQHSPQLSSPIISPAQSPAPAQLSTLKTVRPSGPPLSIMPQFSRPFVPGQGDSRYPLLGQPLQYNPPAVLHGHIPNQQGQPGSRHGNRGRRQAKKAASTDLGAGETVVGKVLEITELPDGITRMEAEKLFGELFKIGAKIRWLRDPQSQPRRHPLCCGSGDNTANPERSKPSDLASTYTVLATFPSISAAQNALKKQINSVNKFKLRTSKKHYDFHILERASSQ
UniProt Q93096: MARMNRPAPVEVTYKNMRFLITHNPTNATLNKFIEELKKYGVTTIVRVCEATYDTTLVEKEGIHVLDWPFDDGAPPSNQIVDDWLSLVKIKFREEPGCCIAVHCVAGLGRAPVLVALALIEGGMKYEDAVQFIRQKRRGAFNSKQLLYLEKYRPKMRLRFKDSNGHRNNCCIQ
UniProt Q96PZ0: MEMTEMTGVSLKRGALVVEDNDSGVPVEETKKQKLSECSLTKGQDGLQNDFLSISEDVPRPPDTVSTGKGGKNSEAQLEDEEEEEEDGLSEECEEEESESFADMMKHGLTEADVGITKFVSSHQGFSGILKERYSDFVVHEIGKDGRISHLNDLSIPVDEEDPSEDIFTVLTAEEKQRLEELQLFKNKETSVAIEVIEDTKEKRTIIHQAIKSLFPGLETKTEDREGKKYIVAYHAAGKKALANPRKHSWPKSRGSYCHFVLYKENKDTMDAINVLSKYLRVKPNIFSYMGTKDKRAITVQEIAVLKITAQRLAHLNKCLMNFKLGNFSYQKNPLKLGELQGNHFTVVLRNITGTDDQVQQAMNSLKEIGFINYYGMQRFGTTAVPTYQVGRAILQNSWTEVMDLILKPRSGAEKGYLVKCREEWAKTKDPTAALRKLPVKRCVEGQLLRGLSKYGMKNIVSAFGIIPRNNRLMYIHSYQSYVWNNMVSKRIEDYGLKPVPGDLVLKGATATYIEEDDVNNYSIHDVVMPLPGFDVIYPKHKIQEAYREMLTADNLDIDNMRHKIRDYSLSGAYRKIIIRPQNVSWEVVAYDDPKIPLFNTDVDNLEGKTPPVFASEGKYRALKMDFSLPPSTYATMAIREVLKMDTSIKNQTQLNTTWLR

[2] = compound: Cc1cccc(CC(=O)N2CCc3c2ccc(-c2cn(C)c4ncnc(N)c24)c3F)n1
Outline: as §1

[3] = compound: Cc1cn(-c2cc(NC(=O)c3ccc(C)c(Nc4nccc(-c5cccnc5)n4)c3)cc(C(F)(F)F)c2)cn1 [nilotinib]
Outline: as §1

[4] = compound: Cc1nc(Nc2n[nH]c3c2CN(C(=O)N[C@H](CN(C)C)c2ccccc2)C3(C)C)c2sccc2n1
Outline: as §1

[5] = compound: Cc1nc(Nc2ncc(C(=O)Nc3c(C)cccc3Cl)s2)cc(N2CCN(CCO)CC2)n1 [dasatinib]
Outline: as §1

[6] = compound: Cc1ncc(-c2ccnc(Nc3ccc(S(C)(=O)=O)cc3)n2)n1C(C)C
Outline: as §1

[7] = compound: Cn1cc(-c2ccc3c(c2)CCN3C(=O)Cc2cccc(C(F)(F)F)c2)c2c(N)ncnc21
Outline: as §1

[8] = compound: Cn1cc(-c2ccc3nnc(C(F)(F)c4ccc5ncccc5c4)n3n2)cn1
Outline: as §1

[9] = compound: Cn1cncc1[C@@](N)(c1ccc(Cl)cc1)c1ccc2c(c1)c(-c1cccc(Cl)c1)cc(=O)n2C [tipifarnib]
Outline: as §1

[10] = compound: FC(F)(F)c1ccc(/C=C/c2nc(COc3ccc(CCCCn4ccnn4)cc3)co2)cc1 [mubritinib]
Outline: as §1

Measured: log2 fold change

PTDSS2 (UniProt Q9BVG9)
inactive: [1] -0.065 | [2] -0.012 | [3] -0.052 | [4] -0.009 | [5] -0.028 | [6] 0.038 | [7] 0.056 | [8] 0.003 | [9] -0.031 | [10] 0.047

PTPRA (UniProt P18433)
inactive: [1] 0.064 | [2] -0.094 | [3] -0.003 | [4] -0.071 | [5] -0.075 | [6] 0.02 | [7] 0.025 | [8] -0.042 | [9] -0.037 | [10] 0

QARS (UniProt P47897)
inactive: [1] 0.209 | [2] -0.008 | [3] -0.108 | [4] -0.006 | [5] 0.016 | [6] 0.05 | [7] -0.244 | [8] -0.221 | [9] 0.007 | [10] -0.155

PSMD4 (UniProt P55036)
inactive: [1] 0.067 | [2] -0.016 | [3] 0.064 | [4] 0.044 | [5] 0.017 | [6] -0.019 | [7] -0.08 | [8] -0.022 | [9] 0.063 | [10] -0.019

PUS10 (UniProt Q3MIT2)
inactive: [1] 0.011 | [2] -0.026 | [3] 0.071 | [4] 0.006 | [5] -0.063 | [6] -0.078 | [7] 0.059 | [8] -0.026 | [9] -0.007 | [10] -0.059

PSTPIP2 (UniProt Q9H939)
inactive: [1] 0.022 | [2] -0.034 | [3] 0.009 | [4] -0.076 | [5] -0.035 | [6] 0.004 | [7] -0.045 | [8] -0.044 | [9] -0.003 | [10] -0.011

PSMB7 (UniProt Q99436)
inactive: [1] 0.036 | [2] -0.003 | [3] 0.038 | [4] 0.041 | [5] 0.044 | [6] 0.013 | [7] -0.068 | [8] -0.009 | [9] 0.046 | [10] -0.008

PTGR2 (UniProt Q8N8N7)
inactive: [1] 0.084 | [2] -0.151 | [3] 0.003 | [4] -0.215 | [5] -0.025 | [6] 0.07 | [7] 0.112 | [9] 0.184 | [10] -0.066
active: [8] 0.485

PTMS (UniProt P20962)
inactive: [1] 0.015 | [2] -0.079 | [3] 0.041 | [4] -0.042 | [5] 0.034 | [6] 0.028 | [7] 0.103 | [8] -0.061 | [9] 0.037 | [10] 0

QPRT (UniProt Q15274)
inactive: [1] 0 | [2] -0.008 | [3] -0.002 | [4] -0.037 | [5] 0.053 | [6] 0.001 | [7] 0.043 | [8] 0.051 | [9] -0.003 | [10] 0.048

PSMD6 (UniProt Q15008)
inactive: [1] 0.115 | [2] 0.008 | [3] 0.022 | [4] 0.054 | [5] 0.059 | [6] -0.014 | [7] -0.083 | [8] -0.035 | [9] 0.03 | [10] -0.012

PTPRS (UniProt Q13332)
inactive: [1] -0.106 | [2] -0.232 | [3] 0.053 | [4] -0.153 | [5] 0.088 | [6] 0.076 | [8] -0.173

PSMD4 (UniProt Q5VWC4)
inactive: [1] 0.09 | [2] -0.162 | [3] 0.041 | [4] 0.21 | [6] 0.1 | [7] -0.071 | [9] 0.016 | [10] -0.003

PTBP3 isoform 4 (UniProt O95758)
inactive: [1] 0.062 | [2] 0.011 | [3] -0.061 | [4] -0.151 | [5] -0.076 | [6] -0.038 | [7] -0.016 | [8] -0.061 | [9] 0.008 | [10] -0.04

QSOX1 (UniProt O00391)
inactive: [1] 0.045 | [2] -0.068 | [3] -0.164 | [4] -0.358 | [5] 0.021 | [6] 0.033 | [7] 0.046 | [8] -0.096 | [10] -0.01

QRICH1 (UniProt Q2TAL8)
inactive: [1] 0.042 | [3] -0.093 | [4] -0.118 | [5] -0.206 | [6] 0.078 | [7] 0.043 | [8] 0.108 | [9] -0.159 | [10] -0.01

PYURF (UniProt Q96I23)
inactive: [1] 0.062 | [2] -0.051 | [3] 0.092 | [4] 0.011 | [5] 0.04 | [6] 0.045 | [7] 0.02 | [9] -0.01 | [10] 0.071

PTPN12 (UniProt Q05209)
inactive: [1] -0.052 | [2] 0.008 | [3] -0.022 | [4] -0.122 | [5] -0.059 | [6] 0.074 | [7] -0.116 | [8] -0.086 | [9] -0.081 | [10] 0.021

Reprinted from the entries so far (two entries):
PYURF (UniProt Q96I23)
inactive: [1] 0.062 | [2] -0.051 | [3] 0.092 | [4] 0.011 | [5] 0.04 | [6] 0.045 | [7] 0.02 | [9] -0.01 | [10] 0.071

PTPN12 (UniProt Q05209)
inactive: [1] -0.052 | [2] 0.008 | [3] -0.022 | [4] -0.122 | [5] -0.059 | [6] 0.074 | [7] -0.116 | [8] -0.086 | [9] -0.081 | [10] 0.021

Continuation:

PTPN1 (UniProt P18031)
inactive: [1] 0.169 | [2] 0.079 | [3] -0.146 | [4] -0.191 | [5] -0.104 | [6] 0.017 | [7] -0.087 | [8] -0.087 | [9] -0.059 | [10] -0.033

PYCR1 isoform 3 (UniProt P32322)
inactive: [1] 0.105 | [2] 0.036 | [3] 0.009 | [4] 0.022 | [6] -0.028 | [7] 0.058 | [8] 0.049 | [9] 0.014 | [10] 0.049

PSMC3IP (UniProt Q9P2W1)
inactive: [1] 0.284 | [2] -0.276 | [3] -0.202 | [4] -0.242 | [6] 0.299 | [7] 0.032 | [9] -0.041 | [10] -0.029

PSMD8 (UniProt P48556)
inactive: [1] 0.089 | [2] -0.013 | [3] 0.039 | [4] 0.054 | [5] 0.029 | [6] -0.031 | [7] -0.07 | [8] 0.009 | [9] 0.117 | [10] -0.032

PYCARD (UniProt Q9ULZ3)
inactive: [1] -0.01 | [2] 0.012 | [3] 0.009 | [4] -0.041 | [5] 0.009 | [6] -0.013 | [7] 0.043 | [8] 0.065 | [9] -0.008 | [10] 0.132

PTPN2 (UniProt P17706)
inactive: [1] 0.081 | [2] 0.066 | [5] -0.11 | [7] -0.009 | [8] 0.054 | [9] 0.11 | [10] 0.123

PSPC1 (UniProt Q8WXF1)
inactive: [1] 0.015 | [2] 0.088 | [3] -0.004 | [4] -0.179 | [5] -0.02 | [6] -0.112 | [7] -0.003 | [8] 0 | [9] -0.004 | [10] -0.033

PTS (UniProt Q03393)
inactive: [1] 0.062 | [2] 0.045 | [3] -0.124 | [4] -0.013 | [5] -0.003 | [6] -0.113 | [7] 0.092 | [9] 0.032 | [10] 0.05

PSPH (UniProt P78330)
inactive: [1] -0.032 | [2] -0.013 | [3] 0.005 | [4] 0.054 | [5] -0.008 | [6] -0.015 | [7] 0.092 | [8] -0.001 | [9] -0.08 | [10] 0.075

R3HDM1 isoform 2 (UniProt Q15032)
inactive: [1] -0.185 | [2] 0.058 | [3] -0.115 | [4] -0.151 | [5] -0.026 | [6] -0.094 | [8] -0.026 | [9] -0.094 | [10] -0.011

PTP4A1 (UniProt Q93096)
inactive: [1] -0.023 | [2] 0.013 | [3] 0.039 | [4] -0.049 | [5] 0.108 | [7] 0.181 | [8] 0.093 | [9] -0.005 | [10] 0.074
active: [6] -0.299

PUS7 isoform 2 (UniProt Q96PZ0)
inactive: [1] -0.009 | [2] -0.025 | [3] -0.005 | [4] -0.04 | [5] -0.008 | [6] -0.085 | [7] -0.028 | [8] -0.022 | [9] 0.016 | [10] -0.021
